Results are given in words; binding and its absence hold for the method and conditions named. In cells and extracts the contact can be indirect. Binding calls can cover weak binding; strength is not graded here.
Biological target: HA-BmHP1b (Bombyx mori) (UniProt C8KIP4)
Experiment: co-IP; Flag- and HA-tagged proteins co-expressed in BmN4 cells, lysed 5 days after transfection (10 mM Tris-HCl pH 7.5, 150 mM NaCl, 5 mM EDTA, 1% Nonidet P-40); anti-Flag (or -HA) monoclonal antibody-coupled G protein beads, 4 °C overnight; western blot with anti-Flag and anti-HA

Amino acid sequences for entries named in this document (tags omitted). A change or cut given only in a name is not applied to a line headed by its entry.
UniProt C8KIP4: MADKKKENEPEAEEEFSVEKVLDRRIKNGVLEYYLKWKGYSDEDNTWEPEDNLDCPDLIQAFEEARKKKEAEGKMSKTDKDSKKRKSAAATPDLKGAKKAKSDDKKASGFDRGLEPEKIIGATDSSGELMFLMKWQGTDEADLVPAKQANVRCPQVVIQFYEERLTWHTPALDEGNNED
UniProt Q1HPP1: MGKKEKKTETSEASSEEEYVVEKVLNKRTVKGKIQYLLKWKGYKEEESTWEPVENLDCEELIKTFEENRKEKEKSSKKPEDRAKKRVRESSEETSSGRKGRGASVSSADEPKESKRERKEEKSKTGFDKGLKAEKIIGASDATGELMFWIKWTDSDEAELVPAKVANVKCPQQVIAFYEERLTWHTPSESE

- binding: binds
Substance: Flag-BmHP1a (from UniProt Q1HPP1)

Source: article PMC9316600
